From the supplement of paper PMC10849652
The list shows a part of the results.

Chains of the proteins cited; added tags and fusions are not shown. Lines headed by an entry give the natural chain unless they say otherwise; changes in a name come on top.
UniProt Q03111: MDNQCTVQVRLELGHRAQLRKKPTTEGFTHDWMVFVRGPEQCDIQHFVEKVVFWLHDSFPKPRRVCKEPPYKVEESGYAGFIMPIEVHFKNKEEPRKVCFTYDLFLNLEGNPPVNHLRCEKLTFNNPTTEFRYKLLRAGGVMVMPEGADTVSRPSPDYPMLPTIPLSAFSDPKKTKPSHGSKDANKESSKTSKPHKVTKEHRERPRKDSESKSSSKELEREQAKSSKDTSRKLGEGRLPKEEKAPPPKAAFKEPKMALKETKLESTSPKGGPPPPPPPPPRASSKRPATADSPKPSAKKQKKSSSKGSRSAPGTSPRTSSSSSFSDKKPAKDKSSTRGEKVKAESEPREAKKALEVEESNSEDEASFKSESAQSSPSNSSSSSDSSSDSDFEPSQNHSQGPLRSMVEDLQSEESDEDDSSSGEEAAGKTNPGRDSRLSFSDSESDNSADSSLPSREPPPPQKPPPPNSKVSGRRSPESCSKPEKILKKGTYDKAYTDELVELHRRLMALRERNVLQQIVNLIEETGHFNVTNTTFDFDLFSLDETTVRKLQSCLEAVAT
UniProt P22033: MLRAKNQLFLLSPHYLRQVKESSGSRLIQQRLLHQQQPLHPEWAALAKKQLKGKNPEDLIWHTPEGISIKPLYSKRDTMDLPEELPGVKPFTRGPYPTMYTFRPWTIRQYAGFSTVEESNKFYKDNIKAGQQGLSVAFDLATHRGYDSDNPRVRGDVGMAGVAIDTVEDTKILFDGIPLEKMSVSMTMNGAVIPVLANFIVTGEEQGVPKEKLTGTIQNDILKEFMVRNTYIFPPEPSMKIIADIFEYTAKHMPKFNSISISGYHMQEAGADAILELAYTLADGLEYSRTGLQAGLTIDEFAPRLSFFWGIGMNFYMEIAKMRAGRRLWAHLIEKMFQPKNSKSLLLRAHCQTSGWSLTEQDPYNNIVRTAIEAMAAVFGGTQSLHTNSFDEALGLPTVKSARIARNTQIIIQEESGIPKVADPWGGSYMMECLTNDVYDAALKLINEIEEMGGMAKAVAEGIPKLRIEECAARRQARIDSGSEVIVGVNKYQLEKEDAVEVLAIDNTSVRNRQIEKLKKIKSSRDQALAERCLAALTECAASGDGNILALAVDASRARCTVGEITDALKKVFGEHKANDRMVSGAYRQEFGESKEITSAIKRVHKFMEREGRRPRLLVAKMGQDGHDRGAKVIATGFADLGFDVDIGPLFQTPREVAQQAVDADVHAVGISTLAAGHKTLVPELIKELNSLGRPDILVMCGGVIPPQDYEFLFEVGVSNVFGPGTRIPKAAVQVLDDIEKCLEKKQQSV
UniProt P29372, whole entry, looked up: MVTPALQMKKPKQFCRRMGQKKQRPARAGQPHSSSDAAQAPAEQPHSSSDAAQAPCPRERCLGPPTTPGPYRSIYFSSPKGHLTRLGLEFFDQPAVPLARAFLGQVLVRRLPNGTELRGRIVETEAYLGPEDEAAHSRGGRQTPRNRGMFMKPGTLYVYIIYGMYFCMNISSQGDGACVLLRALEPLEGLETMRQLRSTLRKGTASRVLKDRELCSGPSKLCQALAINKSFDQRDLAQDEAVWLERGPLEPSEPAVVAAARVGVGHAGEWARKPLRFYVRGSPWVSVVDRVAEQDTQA
UniProt Q9HC36: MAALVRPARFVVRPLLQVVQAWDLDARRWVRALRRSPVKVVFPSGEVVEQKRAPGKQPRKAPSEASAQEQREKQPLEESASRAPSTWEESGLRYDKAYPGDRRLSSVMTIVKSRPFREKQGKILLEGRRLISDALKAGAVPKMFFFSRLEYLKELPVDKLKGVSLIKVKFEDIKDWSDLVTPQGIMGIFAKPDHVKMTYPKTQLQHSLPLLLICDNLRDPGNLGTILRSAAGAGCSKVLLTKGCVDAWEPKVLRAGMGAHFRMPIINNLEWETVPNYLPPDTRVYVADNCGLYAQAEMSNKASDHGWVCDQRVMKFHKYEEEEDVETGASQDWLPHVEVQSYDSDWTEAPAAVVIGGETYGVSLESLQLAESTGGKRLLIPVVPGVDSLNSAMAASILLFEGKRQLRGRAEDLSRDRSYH
UniProt O95297: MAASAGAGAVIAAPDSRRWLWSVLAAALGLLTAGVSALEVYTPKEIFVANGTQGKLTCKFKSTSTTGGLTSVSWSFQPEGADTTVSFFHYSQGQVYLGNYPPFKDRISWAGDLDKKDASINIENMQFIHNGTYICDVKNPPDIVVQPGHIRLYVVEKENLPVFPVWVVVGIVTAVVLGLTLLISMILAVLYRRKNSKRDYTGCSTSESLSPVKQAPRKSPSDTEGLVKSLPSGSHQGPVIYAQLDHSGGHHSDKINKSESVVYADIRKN
UniProt Q7L9L4: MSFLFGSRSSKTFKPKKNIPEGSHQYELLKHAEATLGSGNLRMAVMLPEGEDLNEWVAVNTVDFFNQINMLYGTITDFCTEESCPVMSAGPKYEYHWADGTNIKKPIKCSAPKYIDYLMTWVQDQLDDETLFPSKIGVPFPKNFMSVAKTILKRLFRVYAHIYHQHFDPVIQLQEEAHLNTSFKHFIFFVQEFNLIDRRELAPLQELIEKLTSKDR
UniProt Q6WCQ1: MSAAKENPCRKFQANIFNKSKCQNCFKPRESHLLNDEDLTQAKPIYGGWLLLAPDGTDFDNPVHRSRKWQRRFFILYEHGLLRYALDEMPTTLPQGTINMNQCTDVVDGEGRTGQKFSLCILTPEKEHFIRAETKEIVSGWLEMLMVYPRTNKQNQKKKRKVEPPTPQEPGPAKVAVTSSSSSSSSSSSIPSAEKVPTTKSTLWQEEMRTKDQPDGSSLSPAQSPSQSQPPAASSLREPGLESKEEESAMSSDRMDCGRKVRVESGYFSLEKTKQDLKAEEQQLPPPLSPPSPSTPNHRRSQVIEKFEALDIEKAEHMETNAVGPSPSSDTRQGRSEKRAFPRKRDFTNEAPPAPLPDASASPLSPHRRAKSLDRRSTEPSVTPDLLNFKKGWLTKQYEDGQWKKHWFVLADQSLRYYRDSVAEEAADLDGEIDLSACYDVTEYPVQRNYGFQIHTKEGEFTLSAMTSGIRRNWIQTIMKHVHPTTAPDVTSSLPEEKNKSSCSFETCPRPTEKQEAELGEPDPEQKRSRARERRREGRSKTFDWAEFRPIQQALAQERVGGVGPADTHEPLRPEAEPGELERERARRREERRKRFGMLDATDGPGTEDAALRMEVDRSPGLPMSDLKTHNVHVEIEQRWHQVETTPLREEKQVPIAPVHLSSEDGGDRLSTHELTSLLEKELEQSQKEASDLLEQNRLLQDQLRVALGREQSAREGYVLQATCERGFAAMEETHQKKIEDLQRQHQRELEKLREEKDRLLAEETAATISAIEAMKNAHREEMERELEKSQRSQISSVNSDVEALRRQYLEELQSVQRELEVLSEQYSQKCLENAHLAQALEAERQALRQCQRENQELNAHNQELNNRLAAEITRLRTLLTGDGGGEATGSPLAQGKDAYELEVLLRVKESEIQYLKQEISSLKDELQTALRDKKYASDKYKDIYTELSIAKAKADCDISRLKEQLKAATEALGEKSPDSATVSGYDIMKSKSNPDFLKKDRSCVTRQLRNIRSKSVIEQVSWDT
UniProt Q5TGZ0: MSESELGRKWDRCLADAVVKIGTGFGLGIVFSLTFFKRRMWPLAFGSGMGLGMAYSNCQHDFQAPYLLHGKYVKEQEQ
UniProt Q8N4V1: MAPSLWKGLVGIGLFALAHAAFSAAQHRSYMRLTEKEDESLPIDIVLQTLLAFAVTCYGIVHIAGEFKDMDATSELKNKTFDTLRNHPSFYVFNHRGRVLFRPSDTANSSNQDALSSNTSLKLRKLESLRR
UniProt Q9UNW1: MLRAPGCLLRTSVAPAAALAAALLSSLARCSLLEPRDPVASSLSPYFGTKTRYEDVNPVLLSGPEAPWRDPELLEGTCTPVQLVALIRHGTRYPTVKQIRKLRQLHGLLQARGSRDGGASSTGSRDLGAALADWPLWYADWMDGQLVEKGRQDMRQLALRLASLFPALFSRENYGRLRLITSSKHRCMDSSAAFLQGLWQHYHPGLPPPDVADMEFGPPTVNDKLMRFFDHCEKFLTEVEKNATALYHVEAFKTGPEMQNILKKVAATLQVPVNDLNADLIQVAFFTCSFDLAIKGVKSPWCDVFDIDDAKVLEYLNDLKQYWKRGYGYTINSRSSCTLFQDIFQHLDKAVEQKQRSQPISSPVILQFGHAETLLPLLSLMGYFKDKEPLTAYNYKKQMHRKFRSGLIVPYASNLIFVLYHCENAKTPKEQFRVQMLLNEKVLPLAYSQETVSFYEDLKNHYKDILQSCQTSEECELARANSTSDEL
UniProt P25325: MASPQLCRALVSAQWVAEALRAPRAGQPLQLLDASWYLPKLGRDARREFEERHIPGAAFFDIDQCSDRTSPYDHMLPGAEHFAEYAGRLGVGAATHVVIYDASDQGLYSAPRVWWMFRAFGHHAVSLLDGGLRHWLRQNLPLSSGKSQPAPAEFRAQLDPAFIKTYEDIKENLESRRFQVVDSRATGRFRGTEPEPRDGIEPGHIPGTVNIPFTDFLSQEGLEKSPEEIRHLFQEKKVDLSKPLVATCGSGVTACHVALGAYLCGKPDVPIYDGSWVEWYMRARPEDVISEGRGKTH
UniProt O95563: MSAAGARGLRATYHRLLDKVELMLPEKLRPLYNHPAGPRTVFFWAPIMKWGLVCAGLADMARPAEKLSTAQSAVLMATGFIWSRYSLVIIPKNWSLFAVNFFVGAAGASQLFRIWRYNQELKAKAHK
UniProt Q9NZB8: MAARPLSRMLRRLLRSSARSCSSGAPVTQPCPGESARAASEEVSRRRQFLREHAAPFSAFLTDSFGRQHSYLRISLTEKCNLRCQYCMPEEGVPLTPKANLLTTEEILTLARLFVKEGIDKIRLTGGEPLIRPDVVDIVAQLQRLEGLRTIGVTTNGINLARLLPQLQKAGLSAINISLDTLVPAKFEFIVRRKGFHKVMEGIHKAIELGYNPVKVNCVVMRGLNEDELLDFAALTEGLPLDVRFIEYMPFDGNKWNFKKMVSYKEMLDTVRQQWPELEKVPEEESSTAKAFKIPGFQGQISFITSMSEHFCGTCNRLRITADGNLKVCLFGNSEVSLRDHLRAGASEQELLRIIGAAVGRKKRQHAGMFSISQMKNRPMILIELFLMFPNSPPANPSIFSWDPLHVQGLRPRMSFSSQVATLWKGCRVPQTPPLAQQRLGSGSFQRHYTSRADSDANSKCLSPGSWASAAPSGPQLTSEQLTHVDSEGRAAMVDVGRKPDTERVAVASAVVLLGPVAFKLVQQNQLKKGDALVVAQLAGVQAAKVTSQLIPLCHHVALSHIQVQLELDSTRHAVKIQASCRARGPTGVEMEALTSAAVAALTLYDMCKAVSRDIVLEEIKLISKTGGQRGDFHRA
UniProt Q9NYP9: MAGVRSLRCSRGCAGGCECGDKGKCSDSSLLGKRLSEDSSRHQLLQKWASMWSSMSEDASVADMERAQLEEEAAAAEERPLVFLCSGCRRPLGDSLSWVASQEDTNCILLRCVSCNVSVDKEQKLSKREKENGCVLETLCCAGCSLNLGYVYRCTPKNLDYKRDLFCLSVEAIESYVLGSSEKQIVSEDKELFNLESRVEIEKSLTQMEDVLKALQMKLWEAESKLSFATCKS
UniProt Q9BV20: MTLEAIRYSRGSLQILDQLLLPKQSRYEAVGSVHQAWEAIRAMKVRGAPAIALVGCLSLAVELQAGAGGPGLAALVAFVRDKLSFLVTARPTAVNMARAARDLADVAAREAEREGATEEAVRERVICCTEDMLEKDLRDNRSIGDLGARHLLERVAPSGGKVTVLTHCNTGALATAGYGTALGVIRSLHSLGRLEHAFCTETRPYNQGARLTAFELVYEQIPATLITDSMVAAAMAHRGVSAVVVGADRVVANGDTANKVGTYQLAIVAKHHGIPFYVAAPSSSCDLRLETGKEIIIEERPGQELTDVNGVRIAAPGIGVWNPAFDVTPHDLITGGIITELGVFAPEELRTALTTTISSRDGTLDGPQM
UniProt Q9H8M7: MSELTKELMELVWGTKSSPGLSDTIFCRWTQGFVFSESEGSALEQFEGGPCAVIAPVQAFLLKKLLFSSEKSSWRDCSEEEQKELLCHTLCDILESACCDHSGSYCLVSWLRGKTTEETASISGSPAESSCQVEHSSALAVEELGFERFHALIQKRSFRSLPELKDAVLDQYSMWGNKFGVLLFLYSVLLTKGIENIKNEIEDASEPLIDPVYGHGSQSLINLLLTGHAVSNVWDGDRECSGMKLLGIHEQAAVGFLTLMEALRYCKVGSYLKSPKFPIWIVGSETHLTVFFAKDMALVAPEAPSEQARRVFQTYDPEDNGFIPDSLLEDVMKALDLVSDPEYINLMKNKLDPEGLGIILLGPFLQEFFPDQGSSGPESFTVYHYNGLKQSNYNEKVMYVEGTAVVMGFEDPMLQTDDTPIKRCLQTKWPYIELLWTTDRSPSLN

compound: CC(C)(O)CC(=O)NCCn1ccc2ncnc(Nc3ccc(Oc4cccc(C(F)(F)F)c4)c(Cl)c3)c21; assay: log2 fold change, soluble protein after heating vs DMSO (PISA); higher = thermal stabilisation; K562 cells, 10 uM, 30 min; active = over 0.2 and 3.5 SD of the protein, either way, in both replicates (recomputed)
Summary of the method: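 K562 cells at 2×10^6 cells/mL were treated for 30 min with 10 μM compound, and aliquots were heated for 3 min over 48°C-58°C before pooling. Extraction used PBS with 0.5% NP-40 at 4°C, and soluble protein was the supernatant after 21,000xg for 90 min, measured by TMTpro 16plex LC-MS/MS with channel sums equalised. Thermal stability values, relative to control samples and from duplicates, are log2 fold changes.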

log2 fold change, inactive:
MIOS (UniProt Q9NXC5) 0.022
MLLT1 (UniProt Q03111) -0.004
MRPL37 (UniProt Q9BZE1) 0
MRPL30 isoform 2 (UniProt Q8TCC3) 0.075
MLEC (UniProt Q14165) 0.013
MRPL24 (UniProt Q96A35) 0.063
MMUT (UniProt P22033) 0.112
MRPL39 (UniProt Q9NYK5) 0.026
MRPL54 (UniProt Q6P161) 0.081
MRPL17 (UniProt Q9NRX2) 0.002
MPG (UniProt P29372) 0.073
MRPL48 (UniProt Q96GC5) 0.062
MRM3 (UniProt Q9HC36) 0.064
MRPL20 (UniProt Q9BYC9) 0.06
MRPL49 (UniProt Q13405) -0.02
MRPL4 (UniProt Q9BYD3) -0.003
MPZL1 (UniProt O95297) -0.01
MOB1B isoform 2 (UniProt Q7L9L4) -0.02
MPRIP isoform 2 (UniProt Q6WCQ1) 0.119
MRPL44 (UniProt Q9H9J2) 0.013
MRPL21 (UniProt Q7Z2W9) 0.019
MICOS10 (UniProt Q5TGZ0) -0.23
MRPL40 (UniProt Q9NQ50) 0.065
MMGT1 (UniProt Q8N4V1) -0.012
MINPP1 (UniProt Q9UNW1) 0.007
MRE11 isoform 3 (UniProt P49959) 0.023
MPST isoform 2 (UniProt P25325) 0.009
MRPL11 (UniProt Q9Y3B7) 0.031
MRPL12 (UniProt P52815) -0.081
MPC2 (UniProt O95563) -0.005
MOCS1 isoform 8 (UniProt Q9NZB8) -0.184
MIS18A (UniProt Q9NYP9) 0.024
MRI1 (UniProt Q9BV20) -0.011
MOGS (UniProt Q13724) 0.017
MRPL45 (UniProt Q9BRJ2) 0.016
MRPL43 isoform 4 (UniProt Q8N983) 0.023
MINDY3 (UniProt Q9H8M7) 0.014
MRPL13 (UniProt Q9BYD1) 0.019

2 records picked at random from the list so far:
log2 fold change, inactive:
MOGS (UniProt Q13724) 0.017
MRPL13 (UniProt Q9BYD1) 0.019
